In patent publication US20160113911A1, “METHODS AND COMPOSITIONS FOR THE TREATMENT OF CANCER” (THE GENERAL HOSPITAL CORPORATION, priority 2013, published 2016):

Experiment: Subcellular localization of KDM4 variants (immunofluorescence)
Assay type: cell-based
Details: KDM4A mutations; % nuclear

| Molecule | Localization |
| --- | --- |
| 2A-R825C*: KDM4A mutation (protein, UniProt O75164 2-1064, looked up, variant R825C) Lysine-specific demethylase 4A: ASESETLNPSARIMTFYPTMEEFRNFSRYIAYIESQGAHRAGLAKVVPPKEWKPRASYDDIDDLVIPAPIQQLVTGQSGLFTQYNIQKKAMTVREFRKIANSDKYCTPRYSEFEELERKYWKNLTFNPPIYGADVNGTLYEKHVDEWNIGRLRTILDLVEKESGITIEGVNTPYLYFGMWKTSFAWHTEDMDLYSINYLHFGEPKSWYSVPPEHGKRLERLAKGFFPGSAQSCEAFLRHKMTLISPLMLKKYGIPFDKVTQEAGEFMITFPYGYHAGFNHGFNCAESTNFATRRWIEYGKQAVLCSCRKDMVKISMDVFVRKFQPERYKLWKAGKDNTVIDHTLPTPEAAEFLKESELPPRAGNEEECPEEDMEGVEDGEEGDLKTSLAKHRIGTKRHRVCLEIPQEVSQSELFPKEDLSSEQYEMTECPAALAPVRPTHSSVRQVEDGLTFPDYSDSTEVKFEELKNVKLEEEDEEEEQAAAALDLSVNPASVGGRLVFSGSKKKSSSSLGSGSSRDSISSDSETSEPLSCRAQGQTGVLTVHSYAKGDGRVTVGEPCTRKKGSAARSFSERELAEVADEYMFSLEENKKSKGRRQPLSKLPRHHPLVLQECVSDDETSEQLTPEEEAEETEAWAKPLSQLWQNRPPNFEAEKEFNETMAQQAPHCAVCMIFQTYHQVEFGGFNQNCGNASDLAPQKQRTKPLIPEMCFTSTGCSTDINLSTPYLEEDGTSILVSCKKCSVRVHASCYGVPPAKASEDWMCSRCSANALEEDCCLCSLRGGALQRANDDRWVHVSCAVAILEARFVNIAERSPVDVSKIPLPCFKLKCIFCKKRRKRTAGCCVQCSHGRCPTAFHVSCAQAAGVMMQPDDWPFVVFITCFRHKIPNLERAKGALQSITAGQKVISKHKNGRFYQCEVVRLTTETFYEVNFDDGSFSDNLYPEDIVSQDCLQFGPPAEGEVVQVRWTDGQVYGAKFVASHPIQMYQVEFEDGSQLVVKRDDVYTLDEELPKRVKSRLSVASDMRFNEIFTEKEVKQEKKRQRVINSRYREDYIEPALYRAIME | +++ (+++ indicates >80% nuclear) |
| 2A-R825H*: KDM4A mutation (protein, UniProt O75164 2-1064, looked up, variant R825H) Lysine-specific demethylase 4A: ASESETLNPSARIMTFYPTMEEFRNFSRYIAYIESQGAHRAGLAKVVPPKEWKPRASYDDIDDLVIPAPIQQLVTGQSGLFTQYNIQKKAMTVREFRKIANSDKYCTPRYSEFEELERKYWKNLTFNPPIYGADVNGTLYEKHVDEWNIGRLRTILDLVEKESGITIEGVNTPYLYFGMWKTSFAWHTEDMDLYSINYLHFGEPKSWYSVPPEHGKRLERLAKGFFPGSAQSCEAFLRHKMTLISPLMLKKYGIPFDKVTQEAGEFMITFPYGYHAGFNHGFNCAESTNFATRRWIEYGKQAVLCSCRKDMVKISMDVFVRKFQPERYKLWKAGKDNTVIDHTLPTPEAAEFLKESELPPRAGNEEECPEEDMEGVEDGEEGDLKTSLAKHRIGTKRHRVCLEIPQEVSQSELFPKEDLSSEQYEMTECPAALAPVRPTHSSVRQVEDGLTFPDYSDSTEVKFEELKNVKLEEEDEEEEQAAAALDLSVNPASVGGRLVFSGSKKKSSSSLGSGSSRDSISSDSETSEPLSCRAQGQTGVLTVHSYAKGDGRVTVGEPCTRKKGSAARSFSERELAEVADEYMFSLEENKKSKGRRQPLSKLPRHHPLVLQECVSDDETSEQLTPEEEAEETEAWAKPLSQLWQNRPPNFEAEKEFNETMAQQAPHCAVCMIFQTYHQVEFGGFNQNCGNASDLAPQKQRTKPLIPEMCFTSTGCSTDINLSTPYLEEDGTSILVSCKKCSVRVHASCYGVPPAKASEDWMCSRCSANALEEDCCLCSLRGGALQRANDDRWVHVSCAVAILEARFVNIAERSPVDVSKIPLPHFKLKCIFCKKRRKRTAGCCVQCSHGRCPTAFHVSCAQAAGVMMQPDDWPFVVFITCFRHKIPNLERAKGALQSITAGQKVISKHKNGRFYQCEVVRLTTETFYEVNFDDGSFSDNLYPEDIVSQDCLQFGPPAEGEVVQVRWTDGQVYGAKFVASHPIQMYQVEFEDGSQLVVKRDDVYTLDEELPKRVKSRLSVASDMRFNEIFTEKEVKQEKKRQRVINSRYREDYIEPALYRAIME | ++ (++ indicates 60-79% nuclear) |
| 2A-R765Q: KDM4A mutation (protein) MASESETLNPSARIMTFYPTMEEFRNFSRYIAYIESQGAHRAGLAKVVPPKEWKPRASYDDIDDLVIPAPIQQLVTGQSGLFTQYNIQKKAMTVREFRKIANSDKYCTPRYSEFEELERKYWKNLTFNPPIYGADVNGTLYEKHVDEWNIGRLRTILDLVEKESGITIEGVNTPYLYFGMWKTSFAWHTEDMDLYSINYLHFGEPKSWYSVPPEHGKRLERLAKGFFPGSAQSCEAFLRHKMTLISPLMLKKYGIPFDKVTQEAGEFMITFPYGYHAGFNHGFNCAESTNFATRRWIEYGKQAVLCSCRKDMVKISMDVFVRKFQPERYKLWKAGKDNTVIDHTLPTPEAAEFLKESELPPRAGNEEECPEEDMEGVEDGEEGDLKTSLAKHRIGTKRHRVCLEIPQEVSQSELFPKEDLSSEQYEMTECPAALAPVRPTHSSVRQVEDGLTFPDYSDSTEVKFEELKNVKLEEEDEEEEQAAAALDLSVNPASVGGRLVFSGSKKKSSSSLGSGSSRDSISSDSETSEPLSCRAQGQTGVLTVHSYAKGDGRVTVGEPCTRKKGSAARSFSERELAEVADEYMFSLEENKKSKGRRQPLSKLPRHHPLVLQECVSDDETSEQLTPEEEAEETEAWAKPLSQLWQNRPPNFEAEKEFNETMAQQAPHCAVCMIFQTYHQVEFGGFNQNCGNASDLAPQKQRTKPLIPEMCFTSTGCSTDINLSTPYLEEDGTSILVSCKKCSVRVHASCYGVPPAKASEDWMCSQCSANALEEDCCLCSLRGGALQRANDDRWVHVSCAVAILEARFVNIAERSPVDVSKIPLPRFKLKCIFCKKRRKRTAGCCVQCSHGRCPTAFHVSCAQAAGVMMQPDDWPFVVFITCFRHKIPNLERAKGALQSITAGQKVISKHKNGRFYQCEVVRLTTETFYEVNFDDGSFSDNLYPEDIVSQDCLQFGPPAEGEVVQVRWTDGQVYGAKFVASHPIQMYQVEFEDGSQLVVKRDDVYTLDEELPKRVKSRLSVASDMRFNEIFTEKEVKQEKKRQRVINSRYREDYIEPALYRAIME | −− (−− indicates 0 to 19% nuclear) |
| 2A-V1003A: KDM4A mutation (protein) MASESETLNPSARIMTFYPTMEEFRNFSRYIAYIESQGAHRAGLAKVVPPKEWKPRASYDDIDDLVIPAPIQQLVTGQSGLFTQYNIQKKAMTVREFRKIANSDKYCTPRYSEFEELERKYWKNLTFNPPIYGADVNGTLYEKHVDEWNIGRLRTILDLVEKESGITIEGVNTPYLYFGMWKTSFAWHTEDMDLYSINYLHFGEPKSWYSVPPEHGKRLERLAKGFFPGSAQSCEAFLRHKMTLISPLMLKKYGIPFDKVTQEAGEFMITFPYGYHAGFNHGFNCAESTNFATRRWIEYGKQAVLCSCRKDMVKISMDVFVRKFQPERYKLWKAGKDNTVIDHTLPTPEAAEFLKESELPPRAGNEEECPEEDMEGVEDGEEGDLKTSLAKHRIGTKRHRVCLEIPQEVSQSELFPKEDLSSEQYEMTECPAALAPVRPTHSSVRQVEDGLTFPDYSDSTEVKFEELKNVKLEEEDEEEEQAAAALDLSVNPASVGGRLVFSGSKKKSSSSLGSGSSRDSISSDSETSEPLSCRAQGQTGVLTVHSYAKGDGRVTVGEPCTRKKGSAARSFSERELAEVADEYMFSLEENKKSKGRRQPLSKLPRHHPLVLQECVSDDETSEQLTPEEEAEETEAWAKPLSQLWQNRPPNFEAEKEFNETMAQQAPHCAVCMIFQTYHQVEFGGFNQNCGNASDLAPQKQRTKPLIPEMCFTSTGCSTDINLSTPYLEEDGTSILVSCKKCSVRVHASCYGVPPAKASEDWMCSRCSANALEEDCCLCSLRGGALQRANDDRWVHVSCAVAILEARFVNIAERSPVDVSKIPLPRFKLKCIFCKKRRKRTAGCCVQCSHGRCPTAFHVSCAQAAGVMMQPDDWPFVVFITCFRHKIPNLERAKGALQSITAGQKVISKHKNGRFYQCEVVRLTTETFYEVNFDDGSFSDNLYPEDIVSQDCLQFGPPAEGEVVQVRWTDGQVYGAKFVASHPIQMYQVEFEDGSQLVVKRDDAYTLDEELPKRVKSRLSVASDMRFNEIFTEKEVKQEKKRQRVINSRYREDYIEPALYRAIME | ++ (++ indicates 60-79% nuclear) |
| 2A-V919M: KDM4A mutation (protein) MASESETLNPSARIMTFYPTMEEFRNFSRYIAYIESQGAHRAGLAKVVPPKEWKPRASYDDIDDLVIPAPIQQLVTGQSGLFTQYNIQKKAMTVREFRKIANSDKYCTPRYSEFEELERKYWKNLTFNPPIYGADVNGTLYEKHVDEWNIGRLRTILDLVEKESGITIEGVNTPYLYFGMWKTSFAWHTEDMDLYSINYLHFGEPKSWYSVPPEHGKRLERLAKGFFPGSAQSCEAFLRHKMTLISPLMLKKYGIPFDKVTQEAGEFMITFPYGYHAGFNHGFNCAESTNFATRRWIEYGKQAVLCSCRKDMVKISMDVFVRKFQPERYKLWKAGKDNTVIDHTLPTPEAAEFLKESELPPRAGNEEECPEEDMEGVEDGEEGDLKTSLAKHRIGTKRHRVCLEIPQEVSQSELFPKEDLSSEQYEMTECPAALAPVRPTHSSVRQVEDGLTFPDYSDSTEVKFEELKNVKLEEEDEEEEQAAAALDLSVNPASVGGRLVFSGSKKKSSSSLGSGSSRDSISSDSETSEPLSCRAQGQTGVLTVHSYAKGDGRVTVGEPCTRKKGSAARSFSERELAEVADEYMFSLEENKKSKGRRQPLSKLPRHHPLVLQECVSDDETSEQLTPEEEAEETEAWAKPLSQLWQNRPPNFEAEKEFNETMAQQAPHCAVCMIFQTYHQVEFGGFNQNCGNASDLAPQKQRTKPLIPEMCFTSTGCSTDINLSTPYLEEDGTSILVSCKKCSVRVHASCYGVPPAKASEDWMCSRCSANALEEDCCLCSLRGGALQRANDDRWVHVSCAVAILEARFVNIAERSPVDVSKIPLPRFKLKCIFCKKRRKRTAGCCVQCSHGRCPTAFHVSCAQAAGVMMQPDDWPFVVFITCFRHKIPNLERAKGALQSITAGQKVISKHKNGRFYQCEMVRLTTETFYEVNFDDGSFSDNLYPEDIVSQDCLQFGPPAEGEVVQVRWTDGQVYGAKFVASHPIQMYQVEFEDGSQLVVKRDDVYTLDEELPKRVKSRLSVASDMRFNEIFTEKEVKQEKKRQRVINSRYREDYIEPALYRAIME | + (+ indicates 40-59% nuclear) |
